Here are results for 4 sequences from article PMC6915718.

Chains of the proteins cited; added tags and fusions are not shown. Residues count along the entry.
UniProt P02769, 25-607: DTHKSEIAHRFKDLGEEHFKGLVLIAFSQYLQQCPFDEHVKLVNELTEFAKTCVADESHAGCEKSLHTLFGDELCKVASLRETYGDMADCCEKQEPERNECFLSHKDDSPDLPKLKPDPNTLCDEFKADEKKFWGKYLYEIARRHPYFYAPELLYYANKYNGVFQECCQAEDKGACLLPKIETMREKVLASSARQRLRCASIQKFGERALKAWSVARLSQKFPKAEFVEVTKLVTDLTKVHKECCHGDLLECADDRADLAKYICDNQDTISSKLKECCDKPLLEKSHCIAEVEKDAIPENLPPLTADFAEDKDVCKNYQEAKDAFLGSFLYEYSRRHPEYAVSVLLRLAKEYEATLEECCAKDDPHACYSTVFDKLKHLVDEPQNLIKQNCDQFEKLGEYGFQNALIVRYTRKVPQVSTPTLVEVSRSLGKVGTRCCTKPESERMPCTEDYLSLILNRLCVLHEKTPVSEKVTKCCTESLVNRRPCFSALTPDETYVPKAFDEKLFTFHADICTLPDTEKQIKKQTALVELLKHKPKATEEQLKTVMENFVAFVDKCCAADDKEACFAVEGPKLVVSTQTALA

The subject of data set [1] is Rap1 DBD337-572 (Naumovozyma castellii). Kind of data set: ExoT 3' end protection (3'DEPA). Conditions: recombinant protein, label: 5' 32P on G-rich strand.
Data set [2] deals with Rap1 DBD337-582 (Naumovozyma castellii). Kind of data set: ExoT 3' end protection (3'DEPA). Conditions: recombinant protein, label: 5' 32P on G-rich strand.
Data set [3] deals with Rap1 full length (Naumovozyma castellii). In words: ExoT 3' end protection (3'DEPA); EMSA. Conditions: EMSA with 10 fmol probe in 15 ul, 3'DEPA under the same binding conditions, then 0.015 U/ul ExoT at 25 C, label: 5' 32P on G-rich strand. (In general: In EMSA bound probe runs differently from free probe, usually more slowly.)
Data set [4] has as its system Cdc13 (Naumovozyma castellii). Kind of data set: ExoT 3' end protection (3'DEPA). Conditions: D13S13 present in equal concentration, oligo not protected, recombinant protein, label: 5' end label, single-stranded DNA.
Data set [5] deals with Cdc13 (Naumovozyma castellii). Kind of data set: EMSA. Conditions: EMSA with 10 fmol probe in 15 ul; 3'DEPA under the same binding conditions, then 0.015 U/ul ExoT at 25 C; recombinant protein; label: 5' 32P on G-rich strand.
The target in data set [6] is BSA (UniProt P02769). In words: ExoT 3' end protection (3'DEPA). Conditions: overhang fully digested, commercial protein, label: 5' 32P on G-rich strand.
The subject of data set [7] is Rap1 full length (Naumovozyma castellii). Kind of data set: EMSA. Conditions: only minute amounts bound; EMSA with 10 fmol probe in 15 ul; 3'DEPA under the same binding conditions, then 0.015 U/ul ExoT at 25 C; recombinant protein; label: 5' 32P on G-rich strand.

For some of these results: Negatives hold for the conditions tested. For some of these results: Construct, isoform or probe ends are uncertain for at least one entry. For some of these results: Weaker means in comparison with the reference protein, sequence or condition of that experiment. For some of these results: At least one verdict rests on a figure or table, not on a statement of the authors.

Turning to “GTCACACGTCACACTCTGGGTGTCTGGGTGTCTGGGTGTC / ACCCAGACACCCAGAGTGTGACGTGTGAC [D15S11]”, the binding result in data set [1] was “binds”; in data set [2] it was “binds”; in data set [3] (protects 1-2 nt of overhang, recombinant …) it was “binds”.
On to “GGACTTAAAATGGCGTGGCAGAACTAACTCTT [Cdc13 no binding control]”, for which, in data set [4], the binding result is “no binding”.
On to “GTCACACGTCACACTCTGGGTGTCTGGGTGTCTGGGTGTC / CCAGACACCCAGAGTGTGACGTGTGAC [D13S13]”, for which the binding result in data set [5] is “binds”; in data set [6] it was “no binding”; in data set [1], “binds”; in data set [2], “binds”; in data set [3] (bound across ds-ss junction, protects 6 nt of overhang, recombinant protein), “binds”.
Turning to “GTCACACGTCACACTCTGGGACTCTCCGTGTCTGGGTGTC / GGAGAGTCCCAGAGTGTGACGTGTGAC [D13S13mutRap1]”, the binding result in data set [7] is listed as “binds more weakly”.
